This note sets out measurements from the supplement of paper PMC4604168 (melanoma cell lines).

Holding throughout (experiment): cleaved PARP positive nuclei fraction relative to DMSO control; melanoma cells; higher = more apoptosis
Holding throughout (details): library dose: low library concentration; 72 h

The subject of assay [1] is WM115.
For assay [2], the system named is WM1716.
Assay [3] deals with WM1745.
Assay [4] relates to WM3526.
The subject of assay [5] is WM3619.
Assay [6] concerns WM451Lu.

Some of the results follow. Many values rest on one well or one pass, so single values are uncertain.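 The apoptosis fraction was the count of cleaved-PARP antibody-stained nuclei relative to all DNA-stained nuclei, imaged in 1,536-well plates. Screening doses were set so most cells survived, and baseline and induced cleaved-PARP levels vary greatly across cell lines.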

Take `CN(c1ncccc1CNc1nc(Nc2ccc3c(c2)CC(=O)N3)ncc1C(F)(F)F)S(C)(=O)=O` + C[C@]1(c2nc3c(C(N)=O)cccc3[nH]2)CCCN1 [Veliparib] (first compound 0.08 µM, partner dose 1.4 µM): the “cleaved PARP positive nuclei fraction” value in assay [1] is 201%; in assay [2], 56.9%; in assay [3], 112%; in assay [4], 42.4%; in assay [5], 87.9%; in assay [6], 118%.
Take `CCCCCCCCc1ccc(CCC(N)(CO)CO)cc1` [fingolimod] + CS(=O)(=O)CCNCc1ccc(-c2ccc3ncnc(Nc4ccc(OCc5cccc(F)c5)c(Cl)c4)c3c2)o1 [lapatinib] (first compound 2 µM, partner dose 0.8 µM): the “cleaved PARP positive nuclei fraction” value is 96.5% in assay [1]; 74.6% in assay [2]; 112% in assay [3]; 46.4% in assay [4]; 89.4% in assay [5]; 125% in assay [6].
On to `C[C@]1(O)C[C@@H](c2nc(-c3ccc4ccc(-c5ccccc5)nc4c3)c3c(N)nccn32)C1` + Cn1cc(/C=C2\C(=O)Nc3cccnc32)c2ccccc21 [GW441756] (first compound 0.4 µM, partner dose 0.4 µM), for which the “cleaved PARP positive nuclei fraction” value in assay [1] is 70.5%; in assay [2] it was 66.2%; in assay [3], 116%; in assay [4] it was 58.7%; in assay [5], 103%; in assay [6] it was 28.8%.
In the case of `COc1ccc(C2=N[C@@H](c3ccc(Cl)cc3)[C@@H](c3ccc(Cl)cc3)N2C(=O)N2CCNC(=O)C2)c(OC(C)C)c1` [Nutlin-3] + CC(C)C[C@H](NC(=O)[C@H](Cc1ccccc1)NC(=O)c1cnccn1)B(O)O [Bortezomib] (first compound 0.1 µM, partner dose 0.001 µM), the “cleaved PARP positive nuclei fraction” value in assay [1] amounted to 92%; in assay [2] it was 263%; in assay [3], 101%; in assay [4], 48.6%; in assay [5] it was 250%; in assay [6] it was 97%.
As for `CN(c1ncccc1CNc1nc(Nc2ccc3c(c2)CC(=O)N3)ncc1C(F)(F)F)S(C)(=O)=O` + O=C(CCCCCCC(=O)Nc1ccccc1)NO [vorinostat] (first compound 0.08 µM, partner dose 0.08 µM), the “cleaved PARP positive nuclei fraction” value came to 146% in assay [1]; 71.7% in assay [2]; 83.6% in assay [3]; 53.6% in assay [4]; 95.8% in assay [5]; 169% in assay [6].
As for `Cn1cnc2c(F)c(Nc3ccc(Br)cc3Cl)c(C(=O)NOCCO)cc21` [selumetinib] + COC(=O)c1sccc1S(=O)(=O)Nc1ccc(Nc2ccccc2)cc1OC [GSK0660] (first compound 0.015 µM, partner dose 1 µM), the “cleaved PARP positive nuclei fraction” value in assay [1] was 167%; in assay [2] it was 107%; in assay [3], 84.2%; in assay [4], 106%; in assay [5], 163%; in assay [6], 74.1%.
As for `C[C@@H](N)c1ccc(C(=O)Nc2ccnc3[nH]ccc23)cc1` + CC(=O)c1c(C)c2cnc(Nc3ccc(N4CCNCC4)cn3)nc2n(C2CCCC2)c1=O [palbociclib] (first compound 0.4 µM, partner dose 0.04 µM), the “cleaved PARP positive nuclei fraction” value in assay [1] came out at 86.3%; in assay [2], 155%; in assay [3] it was 123%; in assay [4], 116%; in assay [5], 149%; in assay [6], 62.1%.
`CS(=O)(=O)c1ccc(C(=O)Nc2ccc(Cl)c(-c3ccccn3)c2)c(Cl)c1` [vismodegib] + COc1ccc(Cl)c(Nc2nc3ccccc3nc2NS(=O)(=O)c2cccc(NC(=O)C(C)(C)N)c2)c1 [XL147] (first compound 1 µM, partner dose 0.8 µM): the “cleaved PARP positive nuclei fraction” value was found to be 94.1% in assay [1]; 242% in assay [2]; 91% in assay [3]; 45.7% in assay [4]; 206% in assay [5]; 40.4% in assay [6].
On to `CC(=O)O[C@@]12CO[C@@H]1C[C@H](O)[C@@]1(C)C(=O)[C@H](O)C3=C(C)[C@@H](OC(=O)[C@H](O)[C@@H](NC(=O)OC(C)(C)C)c4ccccc4)C[C@@](O)([C@@H](OC(=O)c4ccccc4)[C@H]21)C3(C)C` [Docetaxel] + O=C(O)[C@@H]1[O][Sb](=[O])([O][Sb]2(=[O])[O][C@H]([C@H](O)CO)[C@H](O)[C@H](C(=O)O)[O]2)[O][C@H]([C@H](O)CO)[C@@H]1O [stibogluconate] (first compound 0.0001 µM, partner dose 2 µM), for which the “cleaved PARP positive nuclei fraction” value in assay [1] is 243%; in assay [2], 718%; in assay [3], 172%; in assay [4], 173%; in assay [5], 129%; in assay [6], 162%.
On to `COc1ccc(C2=N[C@@H](c3ccc(Cl)cc3)[C@@H](c3ccc(Cl)cc3)N2C(=O)N2CCNC(=O)C2)c(OC(C)C)c1` [Nutlin-3] + COc1cc(Nc2ncc(F)c(Nc3ccc4c(n3)NC(=O)C(C)(C)O4)n2)cc(OC)c1OC [Tamatinib] (first compound 0.1 µM, partner dose 0.4 µM), for which the “cleaved PARP positive nuclei fraction” value was 192% in assay [1]; 57.9% in assay [2]; 118% in assay [3]; 37.5% in assay [4]; 93.7% in assay [5]; 57.3% in assay [6].
As to `Cn1cnc2c(F)c(Nc3ccc(Br)cc3Cl)c(C(=O)NOCCO)cc21` [selumetinib] + CC1(C)NC(=O)N(c2ccc([N+](=O)[O-])c(C(F)(F)F)c2)C1=O [nilutamide] (first compound 0.015 µM, partner dose 1 µM), the “cleaved PARP positive nuclei fraction” value in assay [1] stood at 52.2%; in assay [2], 49.1%; in assay [3] it was 95.5%; in assay [4], 55%; in assay [5], 113%; in assay [6] it was 101%.
`CCN(CC)CCNC(=O)c1c(C)[nH]c(/C=C2\C(=O)Nc3ccc(F)cc32)c1C` [sunitinib] + Oc1cc(-c2nc(-c3ccccc3)[nH]c2-c2ccncc2)ccc1Cl [L779450] (first compound 0.4 µM, partner dose 0.2 µM): the “cleaved PARP positive nuclei fraction” value was 169% in assay [1]; 39.4% in assay [2]; 126% in assay [3]; 157% in assay [4]; 72.1% in assay [5]; 43.4% in assay [6].
For `C[C@@H](N)c1ccc(C(=O)Nc2ccnc3[nH]ccc23)cc1` + C=CCn1c(=O)c2cnc(Nc3ccc(N4CCN(C)CC4)cc3)nc2n1-c1cccc(C(C)(C)O)n1 [MK1775] (first compound 0.4 µM, partner dose 0.02 µM), the “cleaved PARP positive nuclei fraction” value in assay [1] is 47.5%; in assay [2] it was 251%; in assay [3] it was 142%; in assay [4], 49.9%; in assay [5], 114%; in assay [6], 24.2%.
As to `CCN(CC)CCNC(=O)c1c(C)[nH]c(/C=C2\C(=O)Nc3ccc(F)cc32)c1C` [sunitinib] + CN(NC(=O)CC(=O)NN(C)C(=S)c1ccccc1)C(=S)c1ccccc1 [STA4783] (first compound 0.4 µM, partner dose 0.006 µM), the “cleaved PARP positive nuclei fraction” value in assay [1] was determined as 145%; in assay [2], 84.6%; in assay [3] it was 153%; in assay [4] it was 129%; in assay [5], 78.6%; in assay [6], 59.5%.
For the molecule `CC(=O)O[C@@]12CO[C@@H]1C[C@H](O)[C@@]1(C)C(=O)[C@H](O)C3=C(C)[C@@H](OC(=O)[C@H](O)[C@@H](NC(=O)OC(C)(C)C)c4ccccc4)C[C@@](O)([C@@H](OC(=O)c4ccccc4)[C@H]21)C3(C)C` [Docetaxel] + O=C1NC(=O)/C(=C/c2ccc(-c3ccc(F)cc3O)o2)S1 [AS252424] (first compound 0.0001 µM, partner dose 1 µM), the “cleaved PARP positive nuclei fraction” value was determined as 298% in assay [1]; 483% in assay [2]; 142% in assay [3]; 302% in assay [4]; 136% in assay [5]; 388% in assay [6].
`CC1(C)CCC(c2ccc(Cl)cc2)=C(CN2CCN(c3ccc(C(=O)NS(=O)(=O)c4ccc(N[C@H](CCN5CCOCC5)CSc5ccccc5)c(S(=O)(=O)C(F)(F)F)c4)cc3)CC2)C1` + O=C(O)C(=O)Nc1sc2c(c1C(=O)O)CCNC2 [TCS401] (first compound 0.4 µM, partner dose 1.66667 µM): the “cleaved PARP positive nuclei fraction” value in assay [1] came out at 234%; in assay [2] it was 41%; in assay [3], 1170%; in assay [4], 170%; in assay [5] it was 107%; in assay [6], 124%.
Turning to `COc1ccc(C2=N[C@@H](c3ccc(Cl)cc3)[C@@H](c3ccc(Cl)cc3)N2C(=O)N2CCNC(=O)C2)c(OC(C)C)c1` [Nutlin-3] + O=S(=O)(c1ccccc1)N(CC(F)(F)F)c1ccc(C(O)(C(F)(F)F)C(F)(F)F)cc1 [T0901317] (first compound 0.1 µM, partner dose 1.4 µM), the “cleaved PARP positive nuclei fraction” value in assay [1] came out at 184%; in assay [2], 280%; in assay [3], 118%; in assay [4] it was 265%; in assay [5], 122%; in assay [6], 73.5%.
As for `CN(c1ncccc1CNc1nc(Nc2ccc3c(c2)CC(=O)N3)ncc1C(F)(F)F)S(C)(=O)=O` + CCCCCCCCCCCC1=C(O)C(=O)C=C(O)C1=O [Embelin] (first compound 0.08 µM, partner dose 1.2 µM), the “cleaved PARP positive nuclei fraction” value in assay [1] was 119%; in assay [2], 37.6%; in assay [3], 116%; in assay [4], 75.9%; in assay [5], 93.9%; in assay [6] it was 89.1%.
As to `CN(c1ncccc1CNc1nc(Nc2ccc3c(c2)CC(=O)N3)ncc1C(F)(F)F)S(C)(=O)=O` + Cc1cc(Nc2cc(N3CCN(C)CC3)nc(/C=C/c3ccccc3)n2)n[nH]1 [ENMD2076] (first compound 0.08 µM, partner dose 0.04 µM), the “cleaved PARP positive nuclei fraction” value in assay [1] is 103%; in assay [2], 73.2%; in assay [3], 113%; in assay [4] it was 400%; in assay [5], 167%; in assay [6] it was 99%.
Regarding `CC(=O)O[C@@]12CO[C@@H]1C[C@H](O)[C@@]1(C)C(=O)[C@H](O)C3=C(C)[C@@H](OC(=O)[C@H](O)[C@@H](NC(=O)OC(C)(C)C)c4ccccc4)C[C@@](O)([C@@H](OC(=O)c4ccccc4)[C@H]21)C3(C)C` [Docetaxel] + O=C(CCCCCCC(=O)Nc1ccccc1)NO [vorinostat] (first compound 0.0001 µM, partner dose 0.08 µM), the “cleaved PARP positive nuclei fraction” value in assay [1] was found to be 104%; in assay [2] it was 694%; in assay [3], 167%; in assay [4] it was 126%; in assay [5] it was 119%; in assay [6], 236%.
For the molecule `CS(=O)(=O)c1ccc(C(=O)Nc2ccc(Cl)c(-c3ccccn3)c2)c(Cl)c1` [vismodegib] + O=C(O)C(=O)Nc1sc2c(c1C(=O)O)CCNC2 [TCS401] (first compound 1 µM, partner dose 1.66667 µM), the “cleaved PARP positive nuclei fraction” value in assay [1] was 35.8%; in assay [2] it was 53.9%; in assay [3], 98%; in assay [4] it was 80.7%; in assay [5], 89.7%; in assay [6], 68.8%.
With `NC(=O)c1ccc(N(C(N)=O)c2c(F)cccc2F)nc1-c1ccc(F)cc1F` + NC1(c2ccc(-c3nc4ccn5c(=O)[nH]nc5c4cc3-c3ccccc3)cc2)CCC1 [MK2206] (first compound 0.4 µM, partner dose 0.4 µM), the “cleaved PARP positive nuclei fraction” value amounted to 372% in assay [1]; 136% in assay [2]; 102% in assay [3]; 259% in assay [4]; 103% in assay [5]; 315% in assay [6].
On to `C[C@@H](N)c1ccc(C(=O)Nc2ccnc3[nH]ccc23)cc1` + O=C1NC(=O)/C(=C/c2ccc(-c3ccc(F)cc3O)o2)S1 [AS252424] (first compound 0.4 µM, partner dose 1 µM), for which the “cleaved PARP positive nuclei fraction” value in assay [1] was 215%; in assay [2], 2190%; in assay [3], 105%; in assay [4], 78.1%; in assay [5] it was 470%; in assay [6] it was 69.1%.
